Measurements reported in PubChem BioAssay AID504764 (Drosophila RNAi Screening Center, 2011).
The deposit covers about 22,000 reagents; shown is a random part of those that have a named target and a result. In the full data, 403 (1.9%) got an active call. 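Unnormalised raw counts per well; ratio z-scores behind the hit calls and whether each hit raises or lowers signal are not deposited.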 Entries without a mark were called inactive. The record does not give: the amount of reagent.

- Screen: 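Genes whose knock-down alters Notch-dependent transcription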 (primary screen)
- Cell system: Drosophila Kc167 cells
- Knock-down reagent: long dsRNA against Drosophila genes
- Time to read-out: about 5 days (4 days dsRNA, then 24 h after transfection)
- Treatment: transfection of constitutively active membrane-tethered Notch lacking the extracellular domain, read 24 h later
- Detection: 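Light from a Notch-responsive E(spl)m3 luciferase reporter under active Notch, with control-promoter and no-Notch reporter wells to normalise; raw counts from paired wells a and b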
- Scale: induced reporter light, run 1, well a and induced reporter light, run 1, well b: higher = more light from the Notch target reporter with active Notch; control promoter light, run 1, well a and control promoter light, run 1, well b: higher = more light from the viral control promoter (cell number, transfection, viability); uninduced reporter light, run 1, well a: higher = more light from the Notch target reporter without active Notch
- Hit rule: 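Wells with low control signal or poorly matching duplicates excluded; duplicates averaged; per source plate, z beyond ±2 for induced/control log2 ratio or beyond ±1.8 for induced/uninduced marks a hit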
- Calls: active = modifier hit (raised or lowered Notch signal); inactive = not a hit

With knock-down of PIP4K [DRSC17213], the record shows induced reporter light, run 1, well a = 1.08e5; induced reporter light, run 1, well b = 1.10e5; control promoter light, run 1, well a = 1.76e5; control promoter light, run 1, well b = 1.92e5; uninduced reporter light, run 1, well a = 7680.
Against Sur [DRSC03447] the deposit lists induced reporter light, run 1, well a = 2.61e5; induced reporter light, run 1, well b = 2.54e5; control promoter light, run 1, well a = 2.40e5; control promoter light, run 1, well b = 2.65e5; uninduced reporter light, run 1, well a = 16540.
With knock-down of CG14069 [DRSC02372] the results were induced reporter light, run 1, well a = 1.25e5; induced reporter light, run 1, well b = 1.70e5; control promoter light, run 1, well a = 79670; control promoter light, run 1, well b = 1.14e5; uninduced reporter light, run 1, well a = 17145.
Depletion of CG3436 [DRSC00605] gave: induced reporter light, run 1, well a = 1.68e5; induced reporter light, run 1, well b = 1.51e5; control promoter light, run 1, well a = 1.68e5; control promoter light, run 1, well b = 1.45e5; uninduced reporter light, run 1, well a = 15830.
After knock-down of Sam-S [DRSC00758], the screen gave induced reporter light, run 1, well a = 1.91e5; induced reporter light, run 1, well b = 2.21e5; control promoter light, run 1, well a = 2.13e5; control promoter light, run 1, well b = 2.13e5; uninduced reporter light, run 1, well a = 21000.
Against CG8372 [DRSC03086], the entry reads induced reporter light, run 1, well a = 1.97e5; induced reporter light, run 1, well b = 2.00e5; control promoter light, run 1, well a = 1.86e5; control promoter light, run 1, well b = 2.08e5; uninduced reporter light, run 1, well a = 15005.
nau [DRSC17011] showed induced reporter light, run 1, well a = 1.33e5; induced reporter light, run 1, well b = 1.31e5; control promoter light, run 1, well a = 1.33e5; control promoter light, run 1, well b = 1.07e5; uninduced reporter light, run 1, well a = 10795.
Knock-down of CG31122 [DRSC14787] resulted in: induced reporter light, run 1, well a = 38; induced reporter light, run 1, well b = 92; control promoter light, run 1, well a = 280; control promoter light, run 1, well b = 195; uninduced reporter light, run 1, well a = 15.
For CG31122 [DRSC16286], the entry reads induced reporter light, run 1, well a = 1.47e5; induced reporter light, run 1, well b = 1.19e5; control promoter light, run 1, well a = 1.25e5; control promoter light, run 1, well b = 1.37e5; uninduced reporter light, run 1, well a = 11075.
With knock-down of Art7 [DRSC04588] the results were induced reporter light, run 1, well a = 2.18e5 (active); induced reporter light, run 1, well b = 1.90e5; control promoter light, run 1, well a = 1.23e5; control promoter light, run 1, well b = 1.53e5; uninduced reporter light, run 1, well a = 15895.
With knock-down of DCAF12 [DRSC15475], the screen gave induced reporter light, run 1, well a = 1.38e5; induced reporter light, run 1, well b = 1.19e5; control promoter light, run 1, well a = 88285; control promoter light, run 1, well b = 71525; uninduced reporter light, run 1, well a = 11750.
CycG [DRSC14324] gave induced reporter light, run 1, well a = 1.47e5; induced reporter light, run 1, well b = 1.10e5; control promoter light, run 1, well a = 1.86e5; control promoter light, run 1, well b = 1.73e5; uninduced reporter light, run 1, well a = 10060.
Against FoxP [DRSC15159] the deposit lists induced reporter light, run 1, well a = 88485; induced reporter light, run 1, well b = 77475; control promoter light, run 1, well a = 91470; control promoter light, run 1, well b = 64160; uninduced reporter light, run 1, well a = 5575.
Depletion of w [DRSC17233] came out at: induced reporter light, run 1, well a = 70740; induced reporter light, run 1, well b = 73675; control promoter light, run 1, well a = 1.29e5; control promoter light, run 1, well b = 99585; uninduced reporter light, run 1, well a = 7100.
Against w [DRSC18850], the entry reads induced reporter light, run 1, well a = 1.22e5; induced reporter light, run 1, well b = 1.28e5; control promoter light, run 1, well a = 2.30e5; control promoter light, run 1, well b = 1.77e5; uninduced reporter light, run 1, well a = 8720.
With knock-down of Rab5 [DRSC00777] the results were induced reporter light, run 1, well a = 1.03e5; induced reporter light, run 1, well b = 1.16e5; control promoter light, run 1, well a = 1.19e5; control promoter light, run 1, well b = 1.22e5; uninduced reporter light, run 1, well a = 10925.

Reprinted from the listing for reference:
DCAF12 [DRSC15475]: induced reporter light, run 1, well a = 1.38e5; induced reporter light, run 1, well b = 1.19e5; control promoter light, run 1, well a = 88285; control promoter light, run 1, well b = 71525; uninduced reporter light, run 1, well a = 11750
CycG [DRSC14324]: induced reporter light, run 1, well a = 1.47e5; induced reporter light, run 1, well b = 1.10e5; control promoter light, run 1, well a = 1.86e5; control promoter light, run 1, well b = 1.73e5; uninduced reporter light, run 1, well a = 10060

More records follow:
After knock-down of CG18004 [DRSC06705], the record shows induced reporter light, run 1, well a = 1.94e5; induced reporter light, run 1, well b = 1.83e5; control promoter light, run 1, well a = 2.26e5; control promoter light, run 1, well b = 2.12e5; uninduced reporter light, run 1, well a = 15525.
Silencing of Hip14 [DRSC10570] came out at: induced reporter light, run 1, well a = 1.02e5; induced reporter light, run 1, well b = 1.06e5; control promoter light, run 1, well a = 84750; control promoter light, run 1, well b = 92200; uninduced reporter light, run 1, well a = 9980.
With knock-down of CG32856 [DRSC13124], the record shows induced reporter light, run 1, well a = 1.43e5; induced reporter light, run 1, well b = 1.09e5; control promoter light, run 1, well a = 1.51e5; control promoter light, run 1, well b = 1.54e5; uninduced reporter light, run 1, well a = 9230.
With knock-down of Ir48b [DRSC06320] the results were induced reporter light, run 1, well a = 1.14e5; induced reporter light, run 1, well b = 1.26e5; control promoter light, run 1, well a = 1.88e5; control promoter light, run 1, well b = 1.96e5; uninduced reporter light, run 1, well a = 12185.
Spt-I [DRSC06860] scored induced reporter light, run 1, well a = 86585; induced reporter light, run 1, well b = 96120; control promoter light, run 1, well a = 1.07e5; control promoter light, run 1, well b = 1.33e5; uninduced reporter light, run 1, well a = 9970.
With knock-down of CG13217 [DRSC06339], the record shows induced reporter light, run 1, well a = 1.16e5; induced reporter light, run 1, well b = 1.58e5; control promoter light, run 1, well a = 1.65e5; control promoter light, run 1, well b = 1.80e5; uninduced reporter light, run 1, well a = 13015.
CG42322 [DRSC15112] scored induced reporter light, run 1, well a = 1.41e5; induced reporter light, run 1, well b = 1.56e5; control promoter light, run 1, well a = 2.28e5; control promoter light, run 1, well b = 1.91e5; uninduced reporter light, run 1, well a = 15510.
Against CG42322 [DRSC15113], the entry reads induced reporter light, run 1, well a = 1.54e5; induced reporter light, run 1, well b = 1.44e5; control promoter light, run 1, well a = 1.99e5; control promoter light, run 1, well b = 1.74e5; uninduced reporter light, run 1, well a = 10745.
CG42322 [DRSC15114] scored induced reporter light, run 1, well a = 59020; induced reporter light, run 1, well b = 62690; control promoter light, run 1, well a = 47535; control promoter light, run 1, well b = 48450; uninduced reporter light, run 1, well a = 8955.
